# Laboratory results reported in PMC5996148.
# The other results are listed elsewhere or left out.
# Assays:
# Experiment in all cases: protein microarray (ProtoArray v5.0), streptavidin-Alexa Fluor 647
# Conditions in all cases: 3'-biotin; 20 mM Tris (pH 7.5), 5 mM MgCl2, 100 mM KCl, 0.1% Tween-20, A/T-rich and random oligonucleotide blockers; temperature not stated; high values mean tight binding
# TNFAIP8 (human) = tested on: TNFAIP8 (human)
# TNFRSF11B (human) = tested on: TNFRSF11B (human)
# TNFRSF19 (human) = tested on: TNFRSF19 (human)
# TNFSF15 (human) = tested on: TNFSF15 (human)
# TNFSF18 (human) = tested on: TNFSF18 (human)
# TNIP1 (human) = tested on: TNIP1 (human)
# TNIP2 (human) = tested on: TNIP2 (human)
# TNNC1 (human) = tested on: TNNC1 (human)
# TNXB (human) = tested on: TNXB (human)
# TOM1 (human) = tested on: TOM1 (human)
sequence,measurement,setting,value
GGGAGGCTGAGGCAGG [G4-1 biotinylated (PQS2)],binding signal,TNFAIP8 (human),-0.354 z-score
same,binding signal,TNFRSF11B (human),-0.299 z-score
same,binding signal,TNFRSF19 (human),-0.315 z-score
same,binding signal,TNFSF15 (human),-0.316 z-score
same,binding signal,TNFSF18 (human),-0.302 z-score
same,binding signal,TNIP1 (human),-0.336 z-score
same,binding signal,TNIP2 (human),-0.308 z-score
same,binding signal,TNNC1 (human),-0.279 z-score
same,binding signal,TNXB (human),-0.326 z-score
same,binding signal,TOM1 (human),-0.298 z-score
